The campaign covered roughly 400,000 compounds. About 5,500 (1.4%) were called active. The shares of active, inactive and inconclusive entries below differ from those in the screen. The call rests on the fitted dose curve; in most records, active means well fitted cell-killing curve with a large enough effect; inconclusive means small, poorly fitted or top-dose-only effect, or effect the other way; inactive means flat fitted curve, though single readings scatter. Potencies beside an inconclusive call are fits to weak or partial responses and may not hold up.
Test: qHTS assay for MDR1-selective chemotherapeutics: Primary screen using the parental adenocarcinoma cell KB-3-1; further: nearly all actives have a fitted effect of over 60% in size
Settings: KB-3-1 viability, CellTiter-Glo ATP luminescence, 72 h; activity change, negative = cytotoxic: at 46.1 µM (top of the series)
Procedure, shortened: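 KB-3-1 cells, DMEM (no phenol red) + 10% FBS; compound by pin transfer, 72 h, 37 °C. Readout: CellTiter-Glo luminescence after 10 min. Data normalized, curve-fitted.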
On the % scale 0 is the no-effect control and ±100 the full control effect; potency means the concentration at half of the fitted maximal effect.

Compound	Potency	activity change, negative = cytotoxic
Cc1c(C(=O)N2CCCCCC2(C)C(=O)NCC(C)C)oc2ccccc12 (stereo not drawn)	inconclusive: 25.9 µM [cytotoxic, partial curve, poor fit]	
COc1ccc(C(C)(O)c2nc(-c3ccc(Cl)cc3)cs2)cc1 (stereo not drawn)	inconclusive: 29.1 µM [cytotoxic, partial curve, poor fit]	
COc1ccc(NC(=O)c2oc3ccccc3c2NC(=O)c2cc(OC)c(OC)c(OC)c2)cc1	inactive	
O=C(CCNS(=O)(=O)c1ccc(Br)cc1)NC1CCN(Cc2ccccc2)CC1	inconclusive: 2.31 µM [cytotoxic, partial curve, poor fit]	
COc1ccccc1CNC(=O)[C@H](C)NC(=O)C1CCN(C(=O)[C@@H](N)CCSC)CC1	inactive	
Cc1ccc(-c2nc(NCCN(C)C)c3ccccc3n2)cc1	inconclusive: 20.6 µM [cytotoxic, single point]	
Cc1cc(C(C)(C)C)cc(C)c1CCNC(=O)c1ccc[n+]([O-])c1	inconclusive: 9.2 µM [cytotoxic, partial curve, poor fit]	
NC(=O)c1cc2c3ccccc3ccn2c1-c1ccccc1	active: 1.16 µM	
CC(=O)Nc1nnc(CCS(=O)(=O)c2ccc(C)cc2)s1	inactive	
CCn1c(C)nc2cc(C(=O)NNC(=O)c3ccc(C)cc3)ccc21	inactive	
NC(=O)C1=C[C@@H](c2ccc(Br)cc2)C[C@@H](OCc2ccc(CO)cc2)O1	inactive	
COCCC(=O)N1CCC(Oc2ccc(C(=O)N(C)CCCC3CCCC3)cc2)CC1	inconclusive: 29.1 µM [cytotoxic, single point]	
CCOC(=O)N1CCN(C(=O)c2cn(CC)c3ccc(S(=O)(=O)N4CCOCC4)cc3c2=O)CC1	inconclusive: 1.64 µM [cytotoxic, full curve]	
Nc1nonc1C(=O)NCCNCc1cc(Br)ccc1OCc1ccccc1F	inconclusive: 29.1 µM [cytotoxic, single point]	
CCn1c(COc2ccccc2C)nnc1SCC(=O)N1CCN(c2ccccc2)CC1	inconclusive: 2.59 µM [cytotoxic, partial curve, poor fit]	
COc1ncc(-c2c(-c3ccccc3OC)sc3ccccc23)cn1	inconclusive: 20.6 µM [cytotoxic, single point]	
CCOC(=O)N1CCN(C(=O)c2ccc3c(=O)n(Cc4ccc(Cl)cc4)c(=S)[nH]c3c2)CC1	active: 23.1 µM	
NNc1nc(N)c2c(n1)-c1ccccc1CC21CCCC1	inactive	
COCCn1c(SCCCC(=O)c2ccc(Br)cc2)nnc1-c1ccncc1	active: 10.3 µM	
CC(=O)N1CCN(c2ccc(NS(=O)(=O)c3ccc4c(c3)CC(=O)N4)cc2)CC1	inconclusive: 56.2 µM [rising, single point]	
CN(C)CCNC(=O)c1cccc(-c2cnc3c(NC=O)cc(/C=C/c4ccccc4)cn23)c1	inconclusive: 29.1 µM [cytotoxic, single point]	
COc1ccc(S(=O)(=O)N(C)C[C@H]2Oc3ccc(NS(=O)(=O)c4ccccc4)cc3CC(=O)N([C@H](C)CO)C[C@@H]2C)cc1	inconclusive: 18.4 µM [cytotoxic, single point]	
O=C(CCC1CCN(C(=O)c2ccco2)CC1)NCc1ccc(F)cc1	inconclusive: 0.0092 µM [cytotoxic, full curve]	

Random excerpt: 4 entries already listed, in no set order.
Compound	Potency	activity change, negative = cytotoxic
Cc1c(C(=O)N2CCCCCC2(C)C(=O)NCC(C)C)oc2ccccc12 (stereo not drawn)	inconclusive: 25.9 µM [cytotoxic, partial curve, poor fit]	
CC(=O)Nc1nnc(CCS(=O)(=O)c2ccc(C)cc2)s1	inactive	
NNc1nc(N)c2c(n1)-c1ccccc1CC21CCCC1	inactive	
Nc1nonc1C(=O)NCCNCc1cc(Br)ccc1OCc1ccccc1F	inconclusive: 29.1 µM [cytotoxic, single point]	

Next part:

Compound	Potency	activity change, negative = cytotoxic
CCSc1ncc(Cl)c(C(=O)Nc2sc(C(C)=O)c(C)c2C(=O)OC)n1	inconclusive: 2.06 µM [rising, full curve]	
Cc1nn(CCc2n[nH]c(=S)n2-c2ccc(F)c(Cl)c2)c(C)c1[N+](=O)[O-]	inconclusive: 32.6 µM [cytotoxic, single point]	
CC(C)c1ccc(NC(=O)[C@@H](NC(=O)N2CC(=O)Nc3ccccc32)C(C)C)cc1	inconclusive: 23.1 µM [cytotoxic, single point]	
CC(=O)Nc1ccc(-c2csc(NC(=O)Cc3cccc(F)c3)n2)cc1	inconclusive: 23.1 µM [cytotoxic, partial curve, poor fit]	
CCCCCCNC(=O)Nc1nnc(-c2ccncc2)s1	inconclusive: 0.0082 µM [rising, full curve, poor fit]	
COc1ccc(CCNC(=O)Cn2cc(C(F)(F)F)cc(Cl)c2=O)cc1OC		inconclusive: 18.6%
COc1ccc(CN2CCNC(=O)C2CC(=O)NCCc2nc(C)c(C)s2)cc1C (stereo not drawn)	inconclusive: 23.1 µM [rising, single point]	
COc1ccccc1C1=NOC(COc2ccc3c(C)cc(=O)oc3c2)C1 (stereo not drawn)	active: 1.16 µM	
CC(=O)N(C1=C(Cl)C(=O)c2ccccc2C1=O)C1CCCCC1	inconclusive: 18.4 µM [cytotoxic, single point]	
COc1cccc(CNc2nc3ccc(NC(C)=O)cc3s2)c1	inactive	
O=C(Nc1cccn(Cc2c(Cl)cccc2Cl)c1=O)c1ccccc1Cl	inconclusive: 16.4 µM [cytotoxic, partial curve, poor fit]	
CCOc1ccc(N(CC(=O)Nc2ccc(C)c(C)c2)S(=O)(=O)c2c(C)noc2C)cc1	inconclusive: 20.6 µM [cytotoxic, single point]	
O=C1NC(c2ccc(Br)cc2)Nc2ccccc21 (stereo not drawn)	inconclusive: 23.1 µM [cytotoxic, single point]	
CCCC[C@@H]1CNCCN1CCc1cc(C(F)(F)F)cc(C(F)(F)F)c1	inconclusive: 29.1 µM [cytotoxic, single point]	
CC(=O)c1ccc(NC(=S)N(CCCN(C)C)Cc2ccccc2)cc1	inactive	
CC[n+]1c(/C=C(\C)Nc2ccccc2)sc2ccccc21	inconclusive: 11.6 µM [cytotoxic, partial curve, poor fit]	
CSc1ncc(C(=O)Nc2ccc(Br)cn2)c(C)n1	inconclusive: 29.1 µM [cytotoxic, single point]	
COc1ccc(C(=O)COc2ccccc2C(=O)Nc2ccccc2)cc1		inconclusive: -32%
Cc1nc(Nc2ccc(F)cc2)[nH]c(=O)c1CCC(C)C	inconclusive: 29.1 µM [cytotoxic, single point]	
CCCCN1CC(COCc2ccccc2)Oc2cccc(OCCN3C(=O)[C@@H]4[C@H](C3=O)C3C=C[C@H]4C3)c2S1(=O)=O (stereo partly drawn)	inconclusive: 29.1 µM [cytotoxic, single point]	
CCN(CC)c1ccc(NC(=O)c2ccc3c(c2)c(C)c(C)n3C)cc1	active: 23.1 µM	
CCOc1ccc(-c2cccc(NS(=O)(=O)c3ccc(Cl)s3)c2)nn1	inactive	
CCN1CCN(Cc2ccc(NC(=O)c3cc(NC(=O)C(=O)c4c[nH]c5ccccc45)cc(OC)c3)cc2C(F)(F)F)CC1	inconclusive: 16.4 µM [cytotoxic, single point]	

Compound	Potency	activity change, negative = cytotoxic
COc1cc(OC)c(OC)cc1CNC(=O)c1ccc(S(=O)(=O)N2CC(C)OC(C)C2)cc1 (stereo not drawn)	inactive	
COc1ccc(NC(=S)N(CCc2nc3cc(C)c(C)cc3[nH]2)Cc2cccnc2)cc1	inactive	
O=C(N/N=C/c1cn(-c2ccccc2)nc1-c1cccs1)c1ccc(Cl)cc1	inconclusive: 32.6 µM [cytotoxic, single point]	
O=c1cc(NCc2ccccc2)c2ccccc2o1	inconclusive: 0.82 µM [rising, partial curve]	
COc1cccc(C(=O)NC(c2ccc(Cl)cc2)c2cc(Cl)c3cccnc3c2O)c1 (stereo not drawn)	inconclusive: 1.16 µM [cytotoxic, full curve, poor fit]	
CCc1ccccc1NC(=S)N(CCN1CCOCC1)C1CCN(C(C)=O)CC1	inconclusive: 20.6 µM [rising, partial curve]	
Cc1nc(Cn2c3ccc(NC(=S)NC4CCCCC4)cc3c(=O)n2C)cs1	inactive	
COc1ccc(Nc2ncc(C(=O)Nc3cc(C)ccc3OC)c3ccccc23)cc1	inconclusive: 32.6 µM [cytotoxic, single point]	
Cc1ccc(C)c(Nc2cc(C)nc(-c3ccccc3O)n2)c1	active: 2.59 µM	
NNC(=O)c1cc2ccccc2cc1O	inconclusive: 29.1 µM [cytotoxic, single point]	
C=C(C)Cn1c2ccc(NC(=O)NCCc3ccccc3)cc2c(=O)n1C	inactive	
O=C(NC(=S)Nc1nc2ccccc2s1)c1ccco1	inactive	
COc1ccccc1NC(=O)CN1CCN(CC(=O)Nc2ccc(OC)c(OC)c2)CC1	inactive	
Cc1ccc2c(c1)c1c(c(=O)n(-c3ccccc3C)c(=O)n1Cc1ccccc1F)n2C	inactive	
Cc1ccc(OCC(=O)NN=C2c3ccccc3-c3ccccc32)cc1	inconclusive: 29.1 µM [cytotoxic, single point]	
Cc1cccc2c1-c1sc(C(=O)NCCCN3CCN(c4cccc(Cl)c4)CC3)cc1CO2	inconclusive: 29.1 µM [cytotoxic, single point]	
COc1cccc(Nc2nc(C(N)CCc3ccccc3)cs2)n1 (stereo not drawn)	inconclusive: 29.1 µM [cytotoxic, single point]	
CCOc1ccc(Cl)cc1S(=O)(=O)n1cnc2ccccc21	inconclusive: 7.08 µM [cytotoxic, partial curve, poor fit]	
CCN(CC)S(=O)(=O)c1ccc(N2CCCC2)c(NS(=O)(=O)c2ccccc2)c1	inactive	
Cc1cccc(/C(N)=N/OC(=O)CCC2CCCCC2)c1	inconclusive: 0.291 µM [cytotoxic, full curve]	
C(=N\c1ncnc2sccc12)/NOCc1ccccc1	inconclusive: 25.9 µM [cytotoxic, single point]	
CC(=O)NCCC(=O)Nc1sc2c(c1-c1nc3ccccc3[nH]1)CCCC2	inconclusive: 13 µM [cytotoxic, partial curve, poor fit]	

— PubChem BioAssay AID1347075 (National Center for Advancing Translational Sciences (NCATS), 2019)
